# Source: patent US5734012A, “Cyclic motilin-like polypeptides with gastrointestinal motor stimulating activity” (Ohmeda Pharmaceutical Products Division Inc., priority 1996, dated 1998)
# Amino acid sequences for entries named in this document (tags omitted). Residues count along the entry.
# UniProt G1T803, 1-400: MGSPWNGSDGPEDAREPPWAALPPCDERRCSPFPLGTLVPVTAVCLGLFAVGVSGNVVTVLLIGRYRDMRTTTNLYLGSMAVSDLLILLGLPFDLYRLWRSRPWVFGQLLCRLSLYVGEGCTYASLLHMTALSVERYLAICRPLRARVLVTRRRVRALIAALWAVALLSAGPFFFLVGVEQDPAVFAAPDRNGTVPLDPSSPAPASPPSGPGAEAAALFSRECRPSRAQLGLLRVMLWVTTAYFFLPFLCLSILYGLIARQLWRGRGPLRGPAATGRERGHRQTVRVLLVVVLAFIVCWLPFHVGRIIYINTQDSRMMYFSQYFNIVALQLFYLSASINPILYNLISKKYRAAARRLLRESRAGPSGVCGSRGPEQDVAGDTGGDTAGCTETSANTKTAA
# At least one structure is not confirmed: it was looked up by name or label, or the drawing left a doubt. Positions of bridges follow the written chain, without caps; N, C: chain ends. Non-standard residues stand in square brackets, D forms with d. Residues, ends and D or L forms follow the SMILES beside them. Orn = NCCC[C@H](N)C(=O)O
# Target: rabbit duodenal smooth muscle strip (Oryctolagus cuniculus, UniProt G1T803)
# Assay: Rabbit duodenal smooth muscle strip tissue bath assay (contractility)
# Type: cell-based
# Settings: negative logarithm of dose giving 50% of maximal response to motilin; isotonic contraction of rabbit duodenum segments
# Procedure: The experimental protocol consisted of an equilibration period of 1 hour; a challenge with 10^-4 M acetylcholine followed by a wash-out period; a cumulative dose-response curve of a compound with, at the end, the addition of 10^-7 M motilin; and finally 10^-4 M acetylcholine. If the final response to 10^-4 M acetylcholine differed by more than 5% from the initial response, the results were discarded.
row,SMILES,pEC50
1,"CC[C@H](C)[C@H](NC(=O)[C@@H]1CCCN1C(=O)[C@@H](NC(=O)[C@@H](N)Cc1ccccc1)C(C)C)C(=O)N[C@@H](Cc1ccccc1)C(=O)N[C@H](C(=O)N[C@@H](Cc1ccc(O)cc1)C(=O)NCC(=O)N[C@@H](CCC(=O)O)C(=O)N[C@H]1CCCCNC(=O)C[C@@H](C(N)=O)NC(=O)[C@H](CC(C)C)NC(=O)[C@H](CCCNC(=N)N)NC(=O)[C@H](CCC(N)=O)NC1=O)[C@@H](C)O [SEQ ID NO:7, cyclo^10,14 [Lys^10, Leu^13, Asp^14]pMOT(1-14)] (H-FVPIFTYGEKQRLD-NH2; lactam 10-14; N-terminus and C-terminus assumed)",7.37
2,"CC[C@H](C)[C@H](NC(=O)[C@@H]1CCCN1C(=O)[C@@H](NC(=O)[C@@H](N)Cc1ccccc1)C(C)C)C(=O)N[C@@H](Cc1ccccc1)C(=O)N[C@H](C(=O)N[C@@H](Cc1ccc(O)cc1)C(=O)NCC(=O)N[C@@H](CCC(=O)O)C(=O)N[C@H]1CCC(=O)NCCC[C@@H](C(N)=O)NC(=O)[C@H](CC(C)C)NC(=O)[C@H](CCCNC(=N)N)NC(=O)[C@H](CCC(N)=O)NC1=O)[C@@H](C)O [SEQ ID NO:5, cyclo^10,14 [Glu^10,Leu^13,Orn^14]pMOT(1-14)] (H-FVPIFTYGEEQRL[Orn]-NH2; lactam 10-14; N-terminus and C-terminus assumed)",7.63
3,"CC[C@H](C)[C@H](NC(=O)[C@@H]1CCCN1C(=O)[C@@H](NC(=O)[C@@H](N)Cc1ccccc1)C(C)C)C(=O)N[C@@H](Cc1ccccc1)C(=O)N[C@H](C(=O)N[C@@H](Cc1ccc(O)cc1)C(=O)NCC(=O)N[C@@H](CCC(=O)O)C(=O)N[C@H]1CCC(=O)NCCCC[C@@H](C(N)=O)NC(=O)[C@H](CC(C)C)NC(=O)[C@H](CCCNC(=N)N)NC(=O)[C@H](CCC(N)=O)NC1=O)[C@@H](C)O [SEQ ID NO:4, cyclo^10,14 [Glu^10, Leu^13, Lys^14]pMOT(1-14)] (H-FVPIFTYGEEQRLK-NH2; lactam 10-14; N-terminus and C-terminus assumed)",7.33
